Test results taken from PubChem BioAssay AID256 (DTP/NCI, 2004).
The list is a part of this screen's results and no random one: it covers a few groups of compounds. Not every dose and run of a compound is shown. T/C: endpoint of the treated group in % of that of the vehicle group. Some doses have a count of surviving animals in place of a T/C: the source holds a T/C of zero for them, seemingly a mark for toxic or unscored doses. Some doses without a T/C left all or most animals alive at the check, yet need not have been tolerated: the source hardly ever lists a survival T/C far under the control, and the zero likely stands for such cases as well. Survivors were counted at the toxicity check, usually on the fifth day, unless a day is given; later deaths do not show. Schedule codes are those of the source, read here as Q, the interval in days (D) or hours (H), X, the number of doses. Some doses were run more than once; the results are listed from low to high. Some metal complexes and salts are drawn in pieces, as in the source, so charges may not balance. Where survival is the endpoint, the PubChem record calls one and a half times the control and up active, and a quarter to a half above the control has no call in these data; cut-offs in other NCI protocols can differ.

System: CD2F1 mice, L1210 leukemia ip, survival T/C
Assay: NCI In Vivo Anticancer Drug Screen. Data for tumor model L1210 Leukemia (intraperitoneal) in CD2F1 (CDF1) mice
Conditions: higher T/C = longer survival
Summary of the method: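 Transplantable tumor in mice; compound-treated vs vehicle-treated groups. Read-out = treated/control ratio of the measured endpoint.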

[1] = T/C endpoint: mean survival time, dose: 100.0 mg/kg/injection, schedule: Q04DX002 (ip), vehicle: saline with Tween-80
[2] = T/C endpoint: mean survival time, dose: 200.0 mg/kg/injection, schedule: Q04DX002 (ip), vehicle: saline with Tween-80
[3] = T/C endpoint: mean survival time, dose: 50.0 mg/kg/injection, schedule: Q01DX009 (ip), vehicle: Klucel (hydroxypropylcellulose) (HPC)
[4] = T/C endpoint: mean survival time, dose: 100.0 mg/kg/injection, schedule: Q01DX009 (ip), vehicle: Klucel (hydroxypropylcellulose) (HPC)
[5] = T/C endpoint: mean survival time, dose: 50.0 mg/kg/injection, schedule: Q01DX009 (ip), vehicle: saline
[6] = T/C endpoint: mean survival time, dose: 50.0 mg/kg/injection, schedule: Q01DX001 (ip), vehicle: DMSO

## CCC(O)(C(=O)OCC1=CC[N+]2([O-])CC[C@@H](OC(=O)Nc3ccccc3)C12)c1ccc(Cl)cc1 (stereo not given in full)
T/C endpoint: median survival time, dose: 6.25 mg/kg/injection, schedule: Q01DX005 (ip), vehicle: saline with Tween-80
  T/C: 104 % of control
T/C endpoint: median survival time, dose: 12.5 mg/kg/injection, schedule: Q01DX005 (ip), vehicle: saline with Tween-80
  T/C: 105 % of control
T/C endpoint: median survival time, dose: 25.0 mg/kg/injection, schedule: Q01DX005 (ip), vehicle: saline with Tween-80
  T/C: 120 % of control
T/C endpoint: median survival time, dose: 50.0 mg/kg/injection, schedule: Q01DX005 (ip), vehicle: saline with Tween-80
  T/C: 113 % of control
T/C endpoint: median survival time, dose: 100.0 mg/kg/injection, schedule: Q01DX005 (ip), vehicle: saline with Tween-80
  T/C: 112 % of control

## CCNCCN(CC)C(=N)C(=N)N(CC)CCNCC.O=[N+]([O-])c1cc([N+](=O)[O-])c(O)c([N+](=O)[O-])c1
T/C endpoint: mean survival time, dose: 25.0 mg/kg/injection, schedule: Q04DX002 (ip), vehicle: saline with Tween-80
  T/C: 93 % of control
T/C endpoint: mean survival time, dose: 50.0 mg/kg/injection, schedule: Q04DX002 (ip), vehicle: saline with Tween-80
  T/C: 93 % of control
[1]
  T/C: 93 % of control
[2]
  T/C: 89 % of control

## F[P-](F)(F)(F)(F)F.c1ccc([P+]2(c3ccccc3)CCc3ccccc3C2)cc1
T/C endpoint: mean survival time, dose: 6.25 mg/kg/injection, schedule: Q04DX003 (ip), vehicle: saline with Tween-80
  survivor count: 1 of 3
T/C endpoint: mean survival time, dose: 12.5 mg/kg/injection, schedule: Q04DX003 (ip), vehicle: saline with Tween-80
  survivor count: 0 of 3
T/C endpoint: mean survival time, dose: 25.0 mg/kg/injection, schedule: Q04DX003 (ip), vehicle: saline with Tween-80
  survivor count: 0 of 3
T/C endpoint: mean survival time, dose: 100.0 mg/kg/injection, schedule: Q04DX003 (ip), vehicle: saline with Tween-80
  survivor count: 0 of 3
T/C endpoint: mean survival time, dose: 200.0 mg/kg/injection, schedule: Q04DX003 (ip), vehicle: saline with Tween-80
  survivor count: 0 of 3
T/C endpoint: mean survival time, dose: 400.0 mg/kg/injection, schedule: Q04DX003 (ip), vehicle: saline with Tween-80
  survivor count: 0 of 3

## NC(=O)Nc1ccc(N(CCCl)CCCl)cc1
T/C endpoint: mean survival time, dose: 0.39 mg/kg/injection, schedule: Q01DX009 (ip), vehicle: Klucel (hydroxypropylcellulose) (HPC)
  T/C: 108 and 154 % of control
T/C endpoint: mean survival time, dose: 0.78 mg/kg/injection, schedule: Q01DX009 (ip), vehicle: Klucel (hydroxypropylcellulose) (HPC)
  T/C: 102, 103, 112 % of control
T/C endpoint: mean survival time, dose: 1.56 mg/kg/injection, schedule: Q01DX009 (ip), vehicle: Klucel (hydroxypropylcellulose) (HPC)
  T/C: 104, 112, 115 % of control
T/C endpoint: mean survival time, dose: 3.12 mg/kg/injection, schedule: Q01DX009 (ip), vehicle: Klucel (hydroxypropylcellulose) (HPC)
  T/C: 102, 112, 115, 122 % of control
T/C endpoint: mean survival time, dose: 6.25 mg/kg/injection, schedule: Q01DX009 (ip), vehicle: Klucel (hydroxypropylcellulose) (HPC)
  T/C: 112, 117, 119 % of control
T/C endpoint: mean survival time, dose: 12.5 mg/kg/injection, schedule: Q01DX009 (ip), vehicle: Klucel (hydroxypropylcellulose) (HPC)
  T/C: 115, 124, 141 % of control
T/C endpoint: mean survival time, dose: 25.0 mg/kg/injection, schedule: Q01DX009 (ip), vehicle: Klucel (hydroxypropylcellulose) (HPC)
  T/C: 90, 93, 97 % of control
[3]
  T/C: 89 % of control
[4]
  survivor count: 0 of 6

## O=C(c1ccncc1)N(CCCl)CCCl
[3]
  T/C: 105 % of control
[4]
  T/C: 96 % of control
T/C endpoint: mean survival time, dose: 200.0 mg/kg/injection, schedule: Q01DX009 (ip), vehicle: Klucel (hydroxypropylcellulose) (HPC)
  T/C: 86 % of control

## COc1ccccc1OCC(CN(C)C)OC(=O)C(O)(c1ccccc1)c1ccccc1 (stereo not given)
T/C endpoint: mean survival time, dose: 100.0 mg/kg/injection, schedule: Q01DX001 (ip), vehicle: saline with Tween-80
  T/C: 96 % of control
[1]
  T/C: 101 % of control
T/C endpoint: mean survival time, dose: 200.0 mg/kg/injection, schedule: Q01DX001 (ip), vehicle: saline with Tween-80
  T/C: 93 % of control
[2]
  T/C: 93 % of control
T/C endpoint: mean survival time, dose: 400.0 mg/kg/injection, schedule: Q01DX001 (ip), vehicle: saline with Tween-80
  T/C: 91 % of control

## [O-]/[N+](C/[N+]([O-])=N/O)=N\O
T/C endpoint: mean survival time, dose: 25.0 mg/kg/injection, schedule: Q01DX009 (ip), vehicle: saline
  T/C: 98 % of control
[5]
  T/C: 98 % of control
  survivor count: 6 of 6
T/C endpoint: mean survival time, dose: 100.0 mg/kg/injection, schedule: Q01DX009 (ip), vehicle: saline
  T/C: 86 and 98 % of control
T/C endpoint: mean survival time, dose: 200.0 mg/kg/injection, schedule: Q01DX009 (ip), vehicle: saline
  survivor count: 1 of 6

## CN(C)P(=O)(OCc1ccccc1)N(CCCl)CCCl (stereo not given)
T/C endpoint: mean survival time, dose: 25.0 mg/kg/injection, schedule: Q01DX001 (ip), vehicle: other
  T/C: 106 % of control
T/C endpoint: mean survival time, dose: 50.0 mg/kg/injection, schedule: Q01DX001 (ip), vehicle: other
  T/C: 102 % of control
T/C endpoint: mean survival time, dose: 100.0 mg/kg/injection, schedule: Q01DX001 (ip), vehicle: other
  T/C: 96 % of control
T/C endpoint: mean survival time, dose: 200.0 mg/kg/injection, schedule: Q01DX001 (ip), vehicle: other
  T/C: 87 % of control
T/C endpoint: mean survival time, dose: 400.0 mg/kg/injection, schedule: Q01DX001 (ip), vehicle: other
  survivor count: 0 of 6

## CC(=O)CCOP(=O)(N(CCCl)CCCl)N1CC1 (stereo not given)
T/C endpoint: mean survival time, dose: 6.25 mg/kg/injection, schedule: Q01DX001 (ip), vehicle: DMSO
  T/C: 122 % of control
T/C endpoint: mean survival time, dose: 12.5 mg/kg/injection, schedule: Q01DX001 (ip), vehicle: DMSO
  T/C: 132 % of control
T/C endpoint: mean survival time, dose: 25.0 mg/kg/injection, schedule: Q01DX001 (ip), vehicle: DMSO, evaluated on day 35
  T/C: 226 % of control
T/C endpoint: mean survival time, dose: 25.0 mg/kg/injection, schedule: Q01DX001 (ip), vehicle: DMSO, evaluated on day 45
  T/C: 175 % of control
[6]
  T/C: 135 % of control
  survivor count: 5 of 6
T/C endpoint: mean survival time, dose: 100.0 mg/kg/injection, schedule: Q01DX001 (ip), vehicle: DMSO
  survivor count: 0 of 6 and 5 of 6
T/C endpoint: mean survival time, dose: 200.0 mg/kg/injection, schedule: Q01DX001 (ip), vehicle: DMSO
  survivor count: 0 of 6
T/C endpoint: mean survival time, dose: 400.0 mg/kg/injection, schedule: Q01DX001 (ip), vehicle: DMSO
  survivor count: 0 of 6

## F[P-](F)(F)(F)(F)F.NC(=O)C1CC[N-]CC1.[NH2-].[NH2-].[NH2-].[NH2-].[NH2-].[Ru+8]
T/C endpoint: mean survival time, dose: 3.13 mg/kg/injection, schedule: Q04DX003 (ip), vehicle: water
  T/C: 101 % of control
T/C endpoint: mean survival time, dose: 6.25 mg/kg/injection, schedule: Q04DX003 (ip), vehicle: water
  T/C: 104 % of control
T/C endpoint: mean survival time, dose: 12.5 mg/kg/injection, schedule: Q04DX003 (ip), vehicle: water
  T/C: 91 % of control
T/C endpoint: mean survival time, dose: 25.0 mg/kg/injection, schedule: Q04DX003 (ip), vehicle: water
  T/C: 93 % of control
T/C endpoint: mean survival time, dose: 50.0 mg/kg/injection, schedule: Q04DX003 (ip), vehicle: water
  T/C: 96 % of control
T/C endpoint: mean survival time, dose: 100.0 mg/kg/injection, schedule: Q04DX003 (ip), vehicle: water
  T/C: 96 % of control
T/C endpoint: mean survival time, dose: 200.0 mg/kg/injection, schedule: Q04DX003 (ip), vehicle: water
  survivor count: 0 of 6

## CC1NP(=O)(N(CCCl)CCCl)OCC(C)C(C)O1 (stereo not given)
T/C endpoint: mean survival time, dose: 15.62 mg/kg/injection, schedule: Q01DX001 (ip), vehicle: DMSO
  T/C: 159 % of control
T/C endpoint: mean survival time, dose: 31.3 mg/kg/injection, schedule: Q01DX001 (ip), vehicle: DMSO
  survivor count: 4 of 6
T/C endpoint: mean survival time, dose: 62.5 mg/kg/injection, schedule: Q01DX001 (ip), vehicle: DMSO
  survivor count: 2 of 6
T/C endpoint: mean survival time, dose: 125.0 mg/kg/injection, schedule: Q01DX001 (ip), vehicle: DMSO
  survivor count: 1 of 6
T/C endpoint: mean survival time, dose: 250.0 mg/kg/injection, schedule: Q01DX001 (ip), vehicle: DMSO
  survivor count: 0 of 6
T/C endpoint: mean survival time, dose: 500.0 mg/kg/injection, schedule: Q01DX001 (ip), vehicle: DMSO
  survivor count: 0 of 6

## CN(C)C(=O)OCC[n+]1cccc(OC(=O)N(C)C)c1
T/C endpoint: mean survival time, dose: 0.25 mg/kg/injection, schedule: Q01DX009 (ip), vehicle: saline
  T/C: 98 % of control
T/C endpoint: mean survival time, dose: 0.5 mg/kg/injection, schedule: Q01DX009 (ip), vehicle: saline
  T/C: 104 % of control
T/C endpoint: mean survival time, dose: 1.0 mg/kg/injection, schedule: Q01DX009 (ip), vehicle: saline
  T/C: 100 % of control
T/C endpoint: mean survival time, dose: 5.0 mg/kg/injection, schedule: Q01DX009 (ip), vehicle: saline
  survivor count: 1 of 6
T/C endpoint: mean survival time, dose: 10.0 mg/kg/injection, schedule: Q01DX009 (ip), vehicle: saline
  survivor count: 0 of 6
T/C endpoint: mean survival time, dose: 20.0 mg/kg/injection, schedule: Q01DX009 (ip), vehicle: saline
  survivor count: 0 of 6
